Some of these results come from one statement about several compounds together.
System: diamondback moth (Plutella xylostella)
Assay: Test C: control of diamondback moth on radish plant, foliar spray
Type: in vivo
Details: sprayed at 250 ppm; radish plant pre-infested with 10-15 neonate larvae; visually rated as in Test A

CNC(=O)c1cccc2cccc(C(=O)Nc3ccccc3Br)c12 [Compound 20]
plant protection (feeding damage): ≤ 10%
